The subject of the data set is Jurkat T cells. Briefly: RNA-seq of Jurkat T cells. The following applies: 10 μM. It is filed as cell-based, human. The protocol: RNA-seq and bioinformatics analysis. Jurkat T cells were grown to confluence in 100 mm plates in complete medium and incubated with 10 μM BT2 or vehicle for 4 h. Total RNA was extracted using the RNeasy Mini Kit (Qiagen, cat. no. 74004) with modification. Briefly, cells were washed twice with pre-cooled 1×PBS and TRIzol reagent (Thermo Fisher Scientific cat. no. 15596026) was added to lyse the cells. Chloroform was added to the mixture before microfuge centrifugation at 13000 rpm for 15 min at 4° C. The upper aqueous layer containing total RNA was transferred to fresh microtubes, and isopropanol was added and loaded into RNeasy columns. Columns were washed with buffers RW1 and RPE. Total RNA was eluted from the column using ribonuclease-free water. Samples were submitted to the UNSW Ramaciotti Centre for Genomics for TruSeq Stranded mRNA-seq preparation and sequencing by One NextSeq 500 1×75 bp high-output flow cell with data output up to 400 M reads. Quality control of samples was set at >80% higher than Q30 at 1×75 bp.
RNA-seq reads were first assessed for quality using the tool FastQC (v0.11.8) www.bioinformatics.babraham.ac.uk/projects/fastqc/). The tool Salmon was used for quantifying transcript abundance from RNA-seq reads (Patro et al., 2017). The R package DESeq2 that incorporates a method for differential analysis of count data was then used to identify differentially expressed genes across specific comparisons (Love et al., 2014). This package was also used to perform principal component analysis. […] The ggplot2 R package was used to prepare bar plots, scatter plots, and density plots. The pheatmap R package was used to generate distance matrices, and clustered heatmaps. DESeq2 output was used to generate a ranked list for input into GSEA Pre-ranked (v6.0.12, Broad Institute) (Subramanian et al., 2005) for pathway analysis against the Curated (Canonical Pathway), Gene Ontology, and Hallmarks gene collections from MSigDb (Liberzon et al., 2015; Liberzon et al., 2011). Ranked scores were calculated by multiplying the sign of the log 2 fold change by the log 10 transformed adjusted p value. […] All immune response related gene sets were selected for display.
To gain insights into BT2's mode of action we conducted next generation RNA sequencing (RNA-seq) with extracts of Jurkat T cells exposed to 10 μM BT2 for 4 h.

The mark [1] stands for this setting: 4 h, adjusted p value <0.05, pool of 19071 gene IDs.

Consider `CCOC(=O)Nc1ccc2c(c1)C(=O)N(CC)c1ccccc1O2` [BT2, (10-ethyl-11-oxo-10,11-dihydro-dibenzo[b,f][1,4]oxazepin-2-yl)-carbamic acid ethyl ester], for which the “number of genes suppressed ≥2-fold” value (4 h (Table 2)) was 14. The “number of genes induced ≥2-fold” value (4 h (Table 3)) stood at 30. Moreover, under setting [1], the “number of genes induced” value is on record as 1320 and the “number of genes suppressed” value amounted to 856.

The values above are taken from patent US20250352555A1, “METHOD OF INCREASING IMMUNE CELL ACTIVATION AND/OR TREATING CANCER USING DIBENZOXAZEPINONES” (VASCULAR THERAPEUTICS PTY LTD, priority 2022, published 2025).
